# Measured values taken from PubChem BioAssay AID2417 (National Center for Advancing Translational Sciences (NCATS), 2010).
# “And” between values parts separate entries of the source, which are not always exact repeats. Equal values may be shown once. Among all 140,000 compounds or so, about 4,300 (3.1%) were called active. The inconclusive results got no clear call from the source; some entries with a clear call stand among them for comparison.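 The calls were made as follows: active = readout at or below -70, meaning at least 70% loss of cells showing the perinucleolar compartment, a nuclear body marking cancer cells; inconclusive = readout between -30 and a set limit; inactive = the rest.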
# Assay: High Content Assay for Compounds that inhibit the Assembly of the Perinucleolar Compartment;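 also: plate controls were DMSO wells for no effect and camptothecin positive control wells for full effect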
# Conditions: PC3M PTB-GFP, PNC prevalence imaging, 16 h; at 10 µM; active compounds read low
# Method in brief: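 Compounds are pinned in duplicate onto adhered PC3M cells stably expressing GFP-tagged PTB and incubated 16 h at 37 C. Cells are then fixed, nuclei stained with Hoechst, and PNC-positive cells counted.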
row,Compound,"activity change (PNC), negative = inhibition"
1,O=C1c2ccccc2CN1CCNS(=O)(=O)c1ccc(Cl)cc1,inconclusive: -47.4%
2,COc1cc(NC(=O)CCC2CCCC2)cc(-n2cnnn2)c1,inconclusive: -64.1%
3,COc1ccc(NC(C)=O)cc1NC(=O)CSc1nnc(-c2ccncc2)n1C,inconclusive: -32%
4,CC(OC(=O)CCc1nc2ccccc2c(=O)[nH]1)C(=O)c1ccc(Br)cc1 (stereo unspecified),inconclusive: -50.2%
5,c1ccc2c(c1)CCN(c1nc3cc4c(cc3s1)OCCO4)C2,inactive: 3.24%
6,CCCC(=O)N1CCN(c2ccc(NC(=O)c3cc4ccccc4o3)cc2Cl)CC1,inconclusive: -40.6%
7,Cc1ccccc1C(=O)O/N=C/c1c(N2CCOCC2)n(C)c2ccccc12,inconclusive: -47.5%
8,CCOC(=O)CN(C(=O)CNC(=O)c1ccco1)C(C(=O)NC1CCCCC1)c1cccs1 (stereo unspecified),inconclusive: -50.6%
9,CCOc1ccccc1NC(=O)Nc1cc(OC)ccc1OC,inactive: 48.5%
10,COC(=O)c1ccc(OC(=O)C2CC(=O)N(c3ccc(C)cc3C)C2)cc1 (stereo unspecified),inconclusive: -43.3%
11,CC1CC(=O)C2=C(C1)Nc1ccccc1N=C2 (stereo unspecified),inconclusive: -52.7%
12,O=C(O)c1cc2nc(-c3ccccc3)cc(C(F)(F)F)n2n1,inactive: -2.59%
13,O=C(NCCOc1ccccc1)c1n[nH]c(=O)c2ccccc12,inconclusive: -34.4%
14,Cc1ccc(S(=O)(=O)NCC2CCC(C(=O)NCCCOC(C)C)CC2)cc1 (stereo unspecified),inconclusive: -72.9%
15,COC(=O)c1nc(NC(=O)c2ccccc2Cl)n[nH]1,inconclusive: -44.4%
16,COc1ccc(CCNC(=O)c2c(-c3ccccc3)noc2C)cc1OC,inconclusive: -35.7%
17,Cc1ccc(Nc2nc(CSc3nnc(-c4cccnc4)n3-c3ccccc3C)cs2)cc1,inconclusive: -31.4%
18,COc1cc(/C=N\NC(=O)c2nonc2N)c(OC)cc1Br,inactive: 16.4%
19,Cc1cc(SCc2cc(=O)n3ccsc3n2)nc2ccccc12,inactive: 8.33%
20,CCN(Cc1ccccc1)c1ccc(/C=N/NC(=S)NC(C)C)cc1,inconclusive: -60.3%
21,CCOC(=O)Cc1c(C)nc2c(-c3ccccc3)c[nH]n2c1=O,inconclusive: -37.8%
22,O=C(CS(=O)(=O)c1cn(Cc2ccc(F)cc2)c2ccccc12)N1CCCCC1,active: -100%
23,O=C(CN1C(=O)c2cccc3cccc1c23)Nc1ccc(S(=O)(=O)N2CCOCC2)cc1,inactive: -15.6%

row,Compound,"activity change (PNC), negative = inhibition"
1,CCOc1ccc(CN2C(=O)c3ccccc3C2C(=O)NCc2cccnc2)cc1 (stereo unspecified),inconclusive: -61.5%
2,COc1cc2c(cc1NC(=O)c1ccco1)CCCC2,inconclusive: -52.4%
3,O=C(Nc1nc2c(s1)CCCC2)c1cccc(S(=O)(=O)N2CCCc3ccccc32)c1,inconclusive: -73.5%
4,CC(NC(=O)CCN1C(=O)c2ccccc2C1=O)c1ccc2c(c1)CCCC2 (stereo unspecified),active: -113%
5,CCCC/C(=N\NC(=O)c1ccc(Br)o1)c1ccccc1,active: -114%
6,COc1ccc(C(=O)Cc2ccc3c(c2)OCO3)c(O)c1,inactive: 56.7%
7,Cc1ccc(C2CC(c3cccc(C)c3)n3nc(N)nc3N2)cc1 (stereo unspecified),inconclusive: -78.2%
8,O=C(CCN1CCCCC1)NCC1OCCc2ccccc21 (stereo unspecified),inactive: 22.4%
9,O=C(CC1(O)C(=O)N(Cc2ccccc2Cl)c2ccccc21)c1ccco1 (stereo unspecified),inconclusive: -67.3%
10,COc1ccc(CCn2c(C)ccc2C)cc1OC,active: -100%
11,Cc1nnc(SCCn2c(N(C)Cc3ccccc3)nc3c2c(=O)[nH]c(=O)n3C)s1,inactive: 12.3%
12,CCCOc1ccc(/C=N/Nc2ccccc2[N+](=O)[O-])c(OCCC)c1,inconclusive: -31.6%
13,CCC(C)NC(=O)COC(=O)Cc1sc(N)nc1-c1ccc(C)cc1 (stereo unspecified),inconclusive: -66.1%
14,CC(C)CNC(=S)Nc1ccc(Oc2ccccc2)cc1,inactive: 17%
15,C=CCc1ccccc1OCCNCCCOC,inconclusive: -30.5%
16,CCC(CC)C1C(C#N)=C(N)SC(N)=C1C#N,inactive: 1.75%
17,CCOC(=O)C1=C(C)OC(N)=C(C#N)C1c1ccc(O)c(OC)c1 (stereo unspecified),inactive: 16.3%
18,O=[N+]([O-])c1ccc(-c2nnc(-c3ccccc3)c(N3CCOCC3)n2)cc1,inconclusive: -53.8%
19,COc1ccc(N2CCN(c3ncccn3)CC2)cc1,inconclusive: -35.2%
20,CC(C)(C)c1ccc(S(=O)(=O)NCCc2ccncc2)cc1,inconclusive: -49.8%
21,CCNC(=O)CCS(=O)(=O)c1ccc2ccccc2c1,inactive: -16%
22,CCN(CC)CCn1c(=S)[nH]c2ccc(Cl)cc2c1=O,inconclusive: -51.7%
23,CCOC(=O)C1=C(C)N(C)C(C)=C(C(=O)OCC)C1c1cccnc1,inconclusive: -65.7%

# Pulled by structure from the entries so far:
row,Compound,"activity change (PNC), negative = inhibition"
13,CCC(C)NC(=O)COC(=O)Cc1sc(N)nc1-c1ccc(C)cc1 (stereo unspecified),inconclusive: -66.1%
15,C=CCc1ccccc1OCCNCCCOC,inconclusive: -30.5%
1,CCOc1ccc(CN2C(=O)c3ccccc3C2C(=O)NCc2cccnc2)cc1 (stereo unspecified),inconclusive: -61.5%
9,O=C(CC1(O)C(=O)N(Cc2ccccc2Cl)c2ccccc21)c1ccco1 (stereo unspecified),inconclusive: -67.3%
5,CCCC/C(=N\NC(=O)c1ccc(Br)o1)c1ccccc1,active: -114%
17,CCOC(=O)C1=C(C)OC(N)=C(C#N)C1c1ccc(O)c(OC)c1 (stereo unspecified),inactive: 16.3%
7,Cc1ccc(C2CC(c3cccc(C)c3)n3nc(N)nc3N2)cc1 (stereo unspecified),inconclusive: -78.2%

# Additional entries:

row,Compound,"activity change (PNC), negative = inhibition"
1,Cc1ccc(OCCCCn2ccnc2)c(Cl)c1,inconclusive: -34.6%
2,C[C@@H](C(=O)NCCc1c[nH]c2ccccc12)[C@H]1C[C@]1(C)[C@H](NC(=O)OCc1ccccc1)c1ccccc1,inactive: 28.8%
3,Cc1nn(Cc2ccc(C(=O)N3N=C(C(F)F)CC3(O)C(F)F)cc2)c(C)c1[N+](=O)[O-] (stereo unspecified),inconclusive: -37.8%
4,Cc1cc(=O)c2cccc(Br)c2[nH]1,active: -100%
5,Cc1ccc2c(CC(=O)OC(C)C(=O)NCc3ccc4c(c3)OCO4)coc2c1 (stereo unspecified),inconclusive: -45.2%
6,Cc1ccccc1Nc1nc(N)nc(COC(=O)c2cccc(S(=O)(=O)NCc3ccccc3)c2)n1,inactive: 66.3%
7,Cc1nnc(SCC(=O)Nc2ncc(S(=O)(=O)c3ccc([N+](=O)[O-])cc3)s2)s1,inconclusive: -32.8%
8,CN1C(=O)Cc2cc(S(=O)(=O)N3CCOCC3)ccc21,inactive: 13.1%
9,Cc1cc2cc(CNS(=O)(=O)c3ccc4ccccc4c3)ccc2n1C,active: -102%
10,O=C(COC(=O)[C@H](Cc1ccccc1)NC(=O)c1cccs1)Nc1cc(F)ccc1F,inconclusive: -48.2%
11,Cn1c(CO)cnc1SCc1ccc(Cl)cc1,inactive: -20.4%
12,CC(C)CCN1C(=O)c2ccc(C(=O)Nc3cccc(S(N)(=O)=O)c3)cc2C1=O,inactive: -6.14%
13,CCOC(=O)c1ccc(NC(=O)c2ccccc2N(C)S(=O)(=O)c2ccccc2)cc1,inactive: 94%
14,O=C(NC(=S)NCc1cccnc1)c1ccccc1,inactive: 1.01%
15,CN1CCN(Cc2cc(COCc3ccccc3)c3cccnc3c2O)CC1,inconclusive: -37.3%
16,CCOc1ccc2ccccc2c1C(=O)N1CCOCC1,inconclusive: -52.7%
17,N#Cc1cc(Cl)c(N2CCOCC2)cc1C#N,inactive: 14.1%
18,CC1(C)CC(NC(=O)CCC2CCCC2)CC(C)(C)N1,inconclusive: -61.4%
19,O=C(c1c(Cl)cccc1Cl)N1CCN(c2ccccn2)CC1,inconclusive: -54.3%
20,CCOC(=O)c1[nH]c2ccc(OC)cc2c1NC(=O)N1CCOCC1,active: -102%
21,COC(=O)CSc1nnc(CNc2nc(-c3ccccc3)cs2)n1C,inconclusive: -40%
22,Cc1ccc(CNC(=O)COC(=O)CCCOc2ccc(Cl)cc2Cl)cc1,inactive: 45%
23,COC(=O)c1ccccc1NC(=S)NC(=O)C1CCCCC1,inconclusive: -61.7%

row,Compound,"activity change (PNC), negative = inhibition"
1,O=C(CC(=O)c1ccccc1)Nc1cc(C(F)(F)F)ccc1Cl,inactive: -21%
2,CCOc1ccccc1C(=O)N[C@H](C(=O)OCc1cc([N+](=O)[O-])cc2c1OCOC2)C(C)C,inconclusive: -61.2%
3,O=C(CCc1ccccc1)NC(NC(=S)Nc1cccc(Cl)c1)C(Cl)(Cl)Cl (stereo unspecified),active: -119%
4,Cc1ccc(C(C)C)cc1S(=O)(=O)NCc1cccnc1,inactive: -8.45%
5,O=C(NCc1ccco1)c1cccc(S(=O)(=O)N2CCCCC2)c1,active: -100%
6,CCOc1ccc(N=Cc2c(O)n(-c3cccc(C)n3)c(=O)c3ccccc23)cc1,inconclusive: -43.2%
7,CCOC(=O)c1nc(C)n(-c2ccc(Cl)cc2Cl)n1,inconclusive: -43.5%
8,Cn1c(SCC(=O)Nc2ccccc2)nnc1-c1ccc(NC(=O)CCc2ccccc2)cc1,inactive: -10.7%
9,COc1ccc(CCNC(=O)Cn2c(=O)oc3ccccc32)cc1OC,inconclusive: -33.5%
10,CCOC(=O)CSc1ccc(-c2nc3cc(C)c(C)cc3[nH]2)cn1,inactive: 8.47%
11,C=CCc1ccc(OCc2ccc(C(=O)OC)o2)c(OC)c1,inactive: 3.76%
12,C=CCN(C(=O)Nc1ccccc1)C1CC(=O)N(c2ccc(OC)cc2)C1=O (stereo unspecified),inconclusive: -48.3%
13,O=C(NCCCN1CCOCC1)c1ccc2c(=O)n(CCc3ccccc3)c(=O)[nH]c2c1,active: -94.8%
14,CCN(CC)c1ccc(C=C(c2nnnn2-c2ccc(C)cc2)c2nnnn2-c2ccc(C)cc2)cc1,inactive: -13.2%
15,Cc1[nH]nc2c1C(CCc1ccccc1)C(C#N)=C(N)O2 (stereo unspecified),inconclusive: -55.2%
16,CCOC(=O)C1=C(C)NC(=O)NC1c1ccc(-c2ccccc2F)o1 (stereo unspecified),inconclusive: -76.1%
17,Cc1nc(NC(=O)c2ccccc2)sc1-c1csc(Nc2ccc(F)cc2)n1,active: -100%
18,O=C(O)Cn1c(O)c(C=Nc2ccccc2)sc1=S,inactive: 12.7% and inactive: 15.7%
19,Cc1onc(-c2ccccc2)c1C(=O)NC(=S)NNC(=O)c1ccccc1O,active: -95%
20,CC1CCCN(c2nc3ccccc3nc2C(C#N)S(=O)(=O)c2cccs2)C1 (stereo unspecified),inconclusive: -50.2%
21,Cn1nnc(NC(=O)CSc2nnnn2-c2ccc(F)cc2)n1,inconclusive: -39.4%
22,Cc1cc(C)c2cc(C#N)c(NCCCNC(=O)CCC(=O)O)nc2c1,active: -87.2%
